Record: PubChem BioAssay AID602196 (INSERM, 2012)
In all, the deposit lists about 23,000 reagents; below is an unselected part. Over the whole deposit, 455 (2%) were called active. 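Active includes both protection and sensitisation; some change values fall well beyond the stated -50 to +50 range.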 Further read-outs or replicates are left out here. No sequences are given here. The record does not give: the amount of reagent.

- Aim: 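Modifiers of cisplatin sensitivity in A549 cells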
- System: human A549 lung cancer cells
- Knock-down reagent: siRNA pair against human genes
- Time to read-out: 48 h transfection before cisplatin; time from cisplatin to read-out not stated
- Challenge: cisplatin at a dose killing half of control-siRNA cells; exact dose and duration not given
- Measured: 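Cisplatin cell death as a shift from the 50% death seen with control siRNA; siRNAs toxic or growth-blocking alone scored 0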
- Direction: two-siRNA summed score (-2 to +2): higher = both siRNAs protect from cisplatin killing; -2 means both sensitise
- Hit rule: 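siRNAs harmful alone (LDH or WST-1) get 0; others get +1 for less and -1 for more cisplatin killing; genes are active when the two siRNAs give the same sign, summing to ±2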
- Meaning of the calls: active = both siRNAs shift cisplatin killing the same way; inactive = no consistent shift, or siRNA harmful alone

LOC388610: two-siRNA summed score (-2 to +2) = 0; call = inactive
LOC389683: two-siRNA summed score (-2 to +2) = 0; call = inactive
CLIC6: two-siRNA summed score (-2 to +2) = 0; call = inactive
RAB26: two-siRNA summed score (-2 to +2) = 0; call = inactive
IFT43: two-siRNA summed score (-2 to +2) = -1; call = inactive
RAB43P1: two-siRNA summed score (-2 to +2) = 0; call = inactive
LDC1P: two-siRNA summed score (-2 to +2) = 0; call = inactive
LOC145814: two-siRNA summed score (-2 to +2) = 0; call = inactive
H2BC7: two-siRNA summed score (-2 to +2) = 0; call = inactive
OTUB1: two-siRNA summed score (-2 to +2) = 0; call = inactive
HERPUD2: two-siRNA summed score (-2 to +2) = 1; call = inactive
ANKRD12: two-siRNA summed score (-2 to +2) = 0; call = inactive
BDKRB1: two-siRNA summed score (-2 to +2) = 0; call = inactive
GIMAP1: two-siRNA summed score (-2 to +2) = 0; call = inactive
LOC347544: two-siRNA summed score (-2 to +2) = 0; call = inactive
ZHX3: two-siRNA summed score (-2 to +2) = 0; call = inactive
LINC02906: two-siRNA summed score (-2 to +2) = 0; call = inactive
PCDH12: two-siRNA summed score (-2 to +2) = 0; call = inactive
LOC389934: two-siRNA summed score (-2 to +2) = -1; call = inactive
CCDC42: two-siRNA summed score (-2 to +2) = 0; call = inactive
WDR12: two-siRNA summed score (-2 to +2) = -1; call = inactive

Entries above whose gene name begins with H or h (2):
H2BC7: two-siRNA summed score (-2 to +2) = 0; call = inactive
HERPUD2: two-siRNA summed score (-2 to +2) = 1; call = inactive
